In PubChem BioAssay AID540256 (National Center for Advancing Translational Sciences (NCATS), 2011):
The whole screen tested about 300,000 compounds, of which about 3,700 (1.2%) were called active. This list was built around the results that the source calls inconclusive (neither active nor inactive); the mix of calls is not that of the screen. Calls follow the shape of the full dose curve; tested in HEK293 cells. A potency beside an inconclusive call is a rough fit, not a confirmed value.

Assay: qHTS for Inhibitors of binding or entry into cells for Lassa Virus; also: nearly all actives have a fitted effect of over 50% in size
Settings: Lassa virus pseudotype entry inhibition, cell reporter; activity change, negative = inhibition: at 37.9 µM (top of the series) unless noted
% is scaled to controls: 0 for no effect and ±100 for the full control effect; potency is read from the fitted curve at half-maximal effect.

For `CCCCN(CCCC)C(=O)c1c[nH]c2ccc(S(=O)(=O)Nc3cccc(Cl)c3C)cc2c1=O`, which “activity change, negative = inhibition” value is on record?
Its value is inactive: -3.83% [at 46.1 µM].

With `O=C(CNC(=S)NC(=O)C1CCCCC1)c1ccccc1` as the compound, how does the “activity change, negative = inhibition” value read?
Its value is inactive: 12.5%.

For `Cc1cc(/C=N/NC(=O)c2cccc([N+](=O)[O-])c2)c(C)n1-c1ccc(Cl)cc1Cl`, which Potency is on record?
Its Potency is inconclusive: 11.2 µM [inhibitor, single point].

For `CCOC(=O)C1=C(N)Oc2cc(O)ccc2C1c1cccc([N+](=O)[O-])c1` (centres undefined), which Potency is on record?
Its Potency is inconclusive: 10 µM [inhibitor, single point].

For `COc1cc(-c2nn3c(Cc4ccccc4)nnc3s2)cc(OC)c1OC`, which Potency is on record?
The Potency was inconclusive: 1.83 µM [inhibitor, full curve, poor fit].

With `Cc1cc([N+](=O)[O-])nn1CCCC(=O)Nc1ccc(Cl)cc1Cl` as the compound, how does the Potency read?
Its Potency is inconclusive: 1 µM [inhibitor, partial curve, poor fit].

With `Cc1cnc(C(=O)OCC(=O)Nc2ccc(C)c(S(=O)(=O)N3CCCCCC3)c2)cn1` as the compound, how does the Potency read?
Its Potency is inconclusive: 31.6 µM [activator, single point].

With `O=C(Nc1ccccc1)C1CCCN(C(=O)c2ccc(Cl)cc2)C1` (centres undefined) as the compound, how does the Potency read?
Its Potency is inconclusive: 22.4 µM [inhibitor, single point].

For `O=C(NCCCN1CCOCC1)C(Sc1ccccc1)c1ccccc1` (centres undefined), which “activity change, negative = inhibition” value is on record?
Its value is inactive: 13.9%.

For `O=c1c2ccccc2cnn1-c1nc2ccccc2[nH]1`, which Potency is on record?
The Potency was active: 0.326 µM.

Which “activity change, negative = inhibition” value does the source give for `CCOC(=O)c1cc(NC(=O)c2ccc(F)cc2)c(=O)n2c1oc1ccc(Cl)cc12` here?
The value was inactive: 3.09% [at 46.1 µM].

Which Potency does the source give for `O=C(Nc1c2c(nn1-c1ccc(Cl)cc1)CS(=O)(=O)C2)c1ccc(Br)cc1` here?
Its Potency is inconclusive: 8.91 µM [inhibitor, partial curve, poor fit].

For `CC(C)[C@@H]1NC(=O)[C@@H]2CSCCS(=O)(=O)N2C1=O`, which Potency is on record?
Its Potency is inconclusive: 4.99 µM [inhibitor, full curve, poor fit].

For `O=C(c1ccc(S(=O)(=O)c2ccc(F)cc2)c([N+](=O)[O-])c1)N1CCCCCC1`, which Potency is on record?
The Potency was inconclusive: 12.6 µM [inhibitor, partial curve, poor fit].

Which Potency does the source give for `COc1ccc(S(=O)(=O)N(CC(=O)Nc2ccc(Br)cc2)Cc2ccccc2)cc1` here?
Its Potency is inconclusive: 35.5 µM [inhibitor, partial curve, poor fit].

With `Cc1ccc(NC(=O)C2CCCN(S(=O)(=O)c3cccs3)C2)c(C)c1` (centres undefined) as the compound, how does the Potency read?
The Potency was inconclusive: 1.41 µM [activator, full curve, poor fit].

With `COC(=O)CNC(=O)COC(=O)/C=C/c1cccs1` as the compound, how does the “activity change, negative = inhibition” value read?
Its value is inactive: 13.5%.

With `CCc1ccc(C(=O)NC(C(=O)NCC2CCCO2)C(C)C)cc1` (centres undefined) as the compound, how does the Potency read?
Its Potency is inconclusive: 3.16 µM [inhibitor, single point].

Which Potency does the source give for `CN(C)c1ccc(CNCCC(Cc2ccccc2)c2ccco2)cc1` (centres undefined) here?
Its Potency is inconclusive: 12.6 µM [inhibitor, partial curve, poor fit].

Which Potency does the source give for `CCCN1C(C(=O)c2ccccc2)=C(OC(=O)COc2ccc(C)cc2)c2ccccc2S1(=O)=O` here?
The Potency was inconclusive: 35.5 µM [inhibitor, single point].

With `CC(C)c1ccccc1NC(=S)NN(Cc1ccccc1)c1ccccc1` as the compound, how does the “activity change, negative = inhibition” value read?
Its value is inactive: 5.74%.

Which Potency does the source give for `CC(=O)c1sc(NC(=O)c2ccc(C(C)(C)C)cc2)nc1C` here?
The Potency was inconclusive: 2 µM [inhibitor, partial curve, poor fit].

For `Fc1cccc(/C=N/N=C/c2cccc(F)c2)c1`, which Potency is on record?
The Potency was inconclusive: 6.51 µM [activator, partial curve].

Which Potency does the source give for `CN1CN(c2ccccc2)C2(CCN(CCCSc3ccccc3NC(=O)/C=C/c3ccccc3)CC2)C1=O` here?
The Potency was inconclusive: 35.5 µM [inhibitor, single point].

Which “activity change, negative = inhibition” value does the source give for `Cc1ccc(-n2c(SCC(=O)Nc3ccc(N4CCOCC4)cc3)nc3ccccc3c2=O)cc1` here?
Its value is inactive: -8.44%.

With `COc1cc(CC(=O)Nc2nc(C)cs2)cc(OC)c1OC` as the compound, how does the Potency read?
Its Potency is inconclusive: 10 µM [inhibitor, partial curve, poor fit].

Which “activity change, negative = inhibition” value does the source give for `Cc1ccc(C(=O)NNC(=O)c2cc(OCC(F)(F)F)ccc2OCC(F)(F)F)cc1` here?
The value was inactive: -0.219%.

With `Cc1ccc(S(=O)(=O)c2nc(-c3cccs3)oc2N2CCC(C)CC2)cc1` as the compound, how does the “activity change, negative = inhibition” value read?
Its value is inactive: -21.2% [at 46.1 µM].

With `CCOc1ccc2nc(NC(=O)C3=NNC(=O)CC3)sc2c1` as the compound, how does the “activity change, negative = inhibition” value read?
The value was inactive: 22.1%.

For `Cc1ccc(N(CC(=O)NCC2CCCO2)S(=O)(=O)c2ccccc2)c(C)c1` (centres undefined), which Potency is on record?
Its Potency is inconclusive: 6.31 µM [inhibitor, partial curve, poor fit].

Which “activity change, negative = inhibition” value does the source give for `COCCNCC(=O)N1CCCCCC1` here?
Its value is inactive: 22.8%.

Which Potency does the source give for `CN(Cc1cccc(Cl)c1Cl)C(=O)c1cccc(S(=O)(=O)N2CCN(Cc3ccccc3)CC2)c1` here?
The Potency was inconclusive: 22.4 µM [inhibitor, single point].

Which Potency does the source give for `CCCn1c(CN2CCN(C(=O)OCC)CC2)nc2cc([N+](=O)[O-])ccc21` here?
The Potency was inconclusive: 0.794 µM [inhibitor, single point].

With `CC1CCCC(NC(=O)CCNC(=O)c2ccccc2Cl)C1C` (centres undefined) as the compound, how does the Potency read?
The Potency was inconclusive: 0.355 µM [activator, partial curve, poor fit].

With `COc1ccc(CNC(=O)[C@@H](NC(=O)C2CCN(S(=O)(=O)c3ccccc3)CC2)C(C)C)cc1` as the compound, how does the Potency read?
The Potency was inconclusive: 22.4 µM [inhibitor, single point].

For `Cc1ccc(OCC(=O)Nc2ccccc2[N+](=O)[O-])c(Br)c1`, which “activity change, negative = inhibition” value is on record?
The value was inactive: 4.63%.

Which Potency does the source give for `CN(C)c1ccc(-c2ccccc2)nn1` here?
The Potency was inconclusive: 0.164 µM [activator, partial curve].

Which Potency does the source give for `CCOc1cccc(NC(=O)C2CC(=O)N(C)C(=Nc3ccccc3)S2)c1` (centres undefined) here?
The Potency was inconclusive: 0.517 µM [inhibitor, full curve, poor fit].

With `COc1cc(C)c(Br)cc1S(=O)(=O)NCc1cccs1` as the compound, how does the “activity change, negative = inhibition” value read?
The value was inactive: -13.9%.

Which Potency does the source give for `CCc1ccccc1Nc1sc(C(=O)c2ccccc2)c(N)c1S(=O)(=O)c1ccccc1` here?
Its Potency is inconclusive: 3.98 µM [inhibitor, full curve, poor fit].

For `CN(C)C(=O)c1ccc(S(=O)(=O)NCc2ccc(Cl)cc2)s1`, which Potency is on record?
The Potency was inconclusive: 14.1 µM [activator, single point].

For `CCOC(=O)c1ccc2c(c1)N(Cc1cc(C)ccc1C)C(=O)c1ccccc1S2(=O)=O`, which Potency is on record?
The Potency was inconclusive: 7.08 µM [inhibitor, partial curve, poor fit].

With `N/C(CN1CCCC1=O)=N\OC(=O)c1ccccc1Cl` as the compound, how does the “activity change, negative = inhibition” value read?
The value was inactive: -4.13%.

For `CC(C)CN(C(=O)CN1C(=O)NC(c2ccccc2)(c2ccccc2)C1=O)C1CCS(=O)(=O)C1` (centres undefined), which Potency is on record?
The Potency was inconclusive: 0.447 µM [inhibitor, single point].

Which Potency does the source give for `COc1ccc(CN2C(=O)CCCc3ccccc32)cc1` here?
Its Potency is inconclusive: 6.31 µM [inhibitor, partial curve, poor fit].

With `CN(CC(=O)Nc1ccccc1Cl)C(=O)c1cccc(S(=O)(=O)N2CCN(Cc3ccccc3)CC2)c1` as the compound, how does the Potency read?
Its Potency is inconclusive: 22.4 µM [inhibitor, single point].

With `CC(CCc1ccccc1)NC(=O)Cc1ccccc1` (centres undefined) as the compound, how does the Potency read?
Its Potency is inconclusive: 2.06 µM [activator, partial curve, poor fit].

For `O=C(COc1ccc(Cl)cc1)OCc1cc(=O)n2nc(C3CCCCC3)sc2n1`, which Potency is on record?
The Potency was inconclusive: 35.5 µM [inhibitor, single point].

With `O=C(NNC1=NCCCCC1)c1cccc([N+](=O)[O-])c1` as the compound, how does the “activity change, negative = inhibition” value read?
The value was inactive: 14.8% [at 46.1 µM].

For `COc1ccc(N(C(C)C(=O)N2CCC(Cc3ccccc3)CC2)S(C)(=O)=O)cc1` (centres undefined), which Potency is on record?
The Potency was inconclusive: 11.2 µM [inhibitor, partial curve, poor fit].

For `CCCCc1cc(=O)oc2cc(C)cc(OCC(=O)NCc3cccnc3)c12`, which Potency is on record?
The Potency was inconclusive: 25.1 µM [inhibitor, single point].

With `O=C(Nc1ccc(Br)c(C(F)(F)F)c1)c1ccc(C(F)(F)F)cc1` as the compound, how does the Potency read?
The Potency was inconclusive: 35.5 µM [inhibitor, partial curve, poor fit].

With `COc1ccccc1Nc1cc(C(=O)NCCCN(C)C2CCCCC2)c2ccccc2n1` as the compound, how does the Potency read?
Its Potency is inconclusive: 35.5 µM [inhibitor, single point].

With `O=C(COc1ccccc1)Nc1cccc(-c2nc3cc4ccccc4cc3[nH]2)c1` as the compound, how does the Potency read?
The Potency was inconclusive: 18.3 µM [inhibitor, single point].

For `Cc1ccc(C(=O)NC(=S)Nc2ccccc2N2CCOCC2)cc1C`, which Potency is on record?
The Potency was inconclusive: 22.4 µM [inhibitor, single point].

Which Potency does the source give for `CN(C)c1ccc(-c2noc(C3CCN(S(=O)(=O)c4cccc(Cl)c4)CC3)n2)cc1` here?
The Potency was inconclusive: 32.6 µM [inhibitor, single point].

With `Cc1ccc(S(=O)(=O)N2CC(C)N(S(C)(=O)=O)C2)cc1` (centres undefined) as the compound, how does the Potency read?
The Potency was inconclusive: 14.1 µM [activator, partial curve, poor fit].

With `CC(=O)N[C@@H](Cc1c[nH]c2ccccc12)C(=O)NC1CCCc2ccccc21` (some centres undefined) as the compound, how does the Potency read?
The Potency was inconclusive: 2.24 µM [inhibitor, full curve].

With `CS(=O)(=O)c1ccc(NC(=O)c2cc3c(cc2Cl)N2CCCCCC2=NS3(=O)=O)cc1` as the compound, how does the “activity change, negative = inhibition” value read?
Its value is inactive: -5.36%.

For `CCOC(=O)CSc1ccc(S(=O)(=O)N2CCCCC2)cc1[N+](=O)[O-]`, which Potency is on record?
Its Potency is inconclusive: 20 µM [activator, single point].

With `COc1ccc(S(=O)(=O)N(C)c2ccc(C(=O)Nc3c(C)n(C)n(-c4ccccc4)c3=O)cc2)cc1` as the compound, how does the Potency read?
The Potency was inconclusive: 2.82 µM [inhibitor, partial curve].

With `O=C1CN(C(=O)c2ccc(S(=O)(=O)N3CCCC3)cc2)C(c2ccc(F)cc2)c2cc(Br)ccc2N1` (centres undefined) as the compound, how does the Potency read?
Its Potency is inconclusive: 35.5 µM [inhibitor, single point].

For `CN1CCN(c2nc3cc(C(F)(F)F)ccc3n3cccc23)CC1`, which Potency is on record?
The Potency was inconclusive: 6.51 µM [inhibitor, partial curve].

For `COC(=O)c1ccccc1NC(=O)NCc1ccc2c(c1)CCN2C(=O)c1ccccc1`, which Potency is on record?
The Potency was inconclusive: 35.5 µM [inhibitor, single point].
